PubChem BioAssay AID1159584 – Peter MacCallum Cancer Centre, 2016

Assay: 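Genes that CDH1-null MCF10A cells selectively depend on to survive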 (primary screen)
System: human MCF10A breast epithelial cells, parental and CDH1-null
Knock-down reagent: siRNA against human genes
Read-out: 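Cell viability by CellTiter-Glo ATP luminescence, each line scaled to the mean of mock wells across plates, then CDH1-null over parental ratio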
Scale: CDH1-null / parental viability ratio: higher = CDH1-null cells survive relatively better than parental
This is a random part of about 18,000 reagents. Not all columns of the deposit are shown. No sequences are given here. Not given: the amount of reagent, the time to read-out.

RXYLT1 (GeneID 10329): CDH1-null / parental viability ratio = 1.06
OSGEP (GeneID 55644): CDH1-null / parental viability ratio = 1.12
OR2M5 (GeneID 127059): CDH1-null / parental viability ratio = 0.75
ARL6IP1 (GeneID 23204): CDH1-null / parental viability ratio = 0.9
PAPPA2 (GeneID 60676): CDH1-null / parental viability ratio = 1.17
KRT82 (GeneID 3888): CDH1-null / parental viability ratio = 1.04
OGFRL1 (GeneID 79627): CDH1-null / parental viability ratio = 1.1
MAPK15 (GeneID 225689): CDH1-null / parental viability ratio = 1.06
MRPS25 (GeneID 64432): CDH1-null / parental viability ratio = 0.74

Next part; the last 2 above are carried over.
MAPK15 (GeneID 225689): CDH1-null / parental viability ratio = 1.06
MRPS25 (GeneID 64432): CDH1-null / parental viability ratio = 0.74
NPL (GeneID 80896): CDH1-null / parental viability ratio = 0.99
DNAJC9 (GeneID 23234): CDH1-null / parental viability ratio = 0.87
PHF10 (GeneID 55274): CDH1-null / parental viability ratio = 0.9
REM1 (GeneID 28954): CDH1-null / parental viability ratio = 0.86
RARB (GeneID 5915): CDH1-null / parental viability ratio = 0.74
